Data published in patent publication US9198426B2, “Use of 5 pyridin-4-yl-1,3-thiazoles for controlling phytopathogenic fungi” (Bayer Intellectual Property GmbH, priority 2008, dated 2015).
Some entries share one result that the patent states for a list of compounds.

What was measured:
[1] = tested on: Alternaria solani; test: Alternaria test (tomato)/protective (Use Example 1); assay type: in vivo; settings: tomato plants, protective, 500 ppm active compound, evaluation 7 days after inoculation
[2] = tested on: Pyrenophora teres; test: Pyrenophora teres test (barley)/protective; assay type: in vivo; settings: barley plants, protective, 500 ppm, evaluation 7-9 days after inoculation

Structure (SMILES) | efficacy [1] | efficacy [2]
CCc1nc(-c2ccc(F)cc2)c(-c2ccnc(N)c2)s1 [Ex. 35, 4-[2-Ethyl-4-(4-fluorophenyl)-1,3-thiazol-5-yl]pyridine-2-amine] | ≥ 70% | ≥ 70%
CCc1nc(-c2ccc(F)cc2)c(-c2ccncc2)s1 [Ex. 41, 4-[2-Ethyl-4-(4-fluorophenyl)-1,3-thiazol-5-yl]pyridine] | ≥ 70% | ≥ 70%
CCc1nc(-c2ccc(F)cc2)c(-c2ccnc(Cl)c2)s1 [Ex. 58, 2-Chloro-4-[2-ethyl-4-(4-fluorophenyl)-1,3-thiazol-5-yl]pyridine] | ≥ 70% | 
CCc1nc(-c2ccc(F)cc2)c(-c2ccnc(NC3CC3)c2)s1 [Ex. 72, N-Cyclopropyl-4-[2-ethyl-4-(4-fluorophenyl)-1,3-thiazol-5-yl]pyridine-2-amine] | ≥ 70% | 
